# Experimental data published in the supplement of paper PMC3334620.
# In all, about 33,000 sequences were measured (“E-score (-0.5 to 0.5)”: median about -0.016, highest 2% from about 0.3 on). This is one part of the list.
# Molecular target: T1, Yer184c (UniProt P39961)
# T1 sequence: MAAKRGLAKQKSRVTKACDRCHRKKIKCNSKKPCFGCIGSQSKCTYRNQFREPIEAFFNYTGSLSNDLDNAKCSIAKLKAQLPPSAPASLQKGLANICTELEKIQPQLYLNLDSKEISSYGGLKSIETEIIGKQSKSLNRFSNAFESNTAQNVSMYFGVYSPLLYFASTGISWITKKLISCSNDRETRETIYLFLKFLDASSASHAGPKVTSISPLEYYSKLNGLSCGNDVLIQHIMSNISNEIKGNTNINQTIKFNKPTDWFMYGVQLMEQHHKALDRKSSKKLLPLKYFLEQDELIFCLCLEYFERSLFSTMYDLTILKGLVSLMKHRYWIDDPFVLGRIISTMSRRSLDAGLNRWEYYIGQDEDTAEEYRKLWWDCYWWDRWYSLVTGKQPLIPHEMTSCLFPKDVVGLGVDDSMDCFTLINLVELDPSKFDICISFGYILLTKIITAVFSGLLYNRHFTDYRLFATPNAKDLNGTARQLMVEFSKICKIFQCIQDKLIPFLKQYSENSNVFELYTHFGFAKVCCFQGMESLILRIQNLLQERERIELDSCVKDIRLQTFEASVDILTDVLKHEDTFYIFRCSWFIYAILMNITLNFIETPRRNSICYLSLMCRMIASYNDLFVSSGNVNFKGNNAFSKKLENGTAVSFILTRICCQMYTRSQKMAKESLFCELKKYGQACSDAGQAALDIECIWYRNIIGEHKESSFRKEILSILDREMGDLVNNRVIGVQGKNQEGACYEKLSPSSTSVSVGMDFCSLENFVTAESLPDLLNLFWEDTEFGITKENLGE
# Experiment: PBM E-score (8-mer binding enrichment) (E-score (-0.5 to 0.5)); higher = stronger / more preferred TF binding
# Conditions: protein concentration: 100 nM; construct: GST-full length
# Procedure, shortened: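 Masliner-normalised scans of fluorescent anti-GST signal were the basis for scoring. That signal came from GST-tagged yeast transcription factors applied at about 100-200 nM to double-stranded universal all-10-mer Agilent arrays on fresh or once-stripped slides. Each ungapped eight-base word, pooled with its reverse complement, received an E-score from the Universal PBM Analysis Suite.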
row,Sequence,PBM E-score
1,GAAGTCTA,-0.243
2,AGGATAAT,0.0292
3,AGCATCGA,0.0924
4,AACATCTT,0.0303
5,TGTGCGAA,-0.163
6,CCATTAAG,-0.0869
7,AAAACATT,0.0702
8,GCAATGAC,-0.0926
9,CGGTAGTC,0.084
10,TCCCACAA,-0.0807
11,CAGTGCCC,-0.153
12,AATACTCC,-0.00405
13,CGTCGGGC,-0.0962
14,GAACTAAC,0.158
15,CTTATCCC,-0.0328
16,CCTTTCCA,-0.0114
17,GCCTCTAA,-0.221
18,CGATAACC,0.0924
19,GGTCAGAC,-0.221
20,ATCCATCA,-0.186
21,GCACGGGA,0.158
22,GACCTTTA,0.0364
23,CTGCCCGC,-0.0137
24,CGGTTATA,0.0659
25,GAAGCGTA,-0.0311

row,Sequence,PBM E-score
1,ACTGAGGC,0.179
2,AACTGGAT,0.153
3,AATCTATC,-0.0774
4,ATAAAGTG,0.174
5,CCTAGGAA,0.0223
6,GATGTCTA,-0.00433
7,CTGAAGCC,-0.0315
8,AATGGAAT,0.124
9,CCTTTACG,0.0566
10,CTGACTCA,-0.215
11,CAGTACGC,-0.132
12,ACTAGATA,0.0984
13,CAATGTGG,-0.171
14,ATAGTTTC,-0.00249
15,GGCGAGAC,-0.215
16,ATTTTGTC,0.131
17,CAGTCGAA,-0.184
18,AAGTTATT,0.178
19,GGCCATCA,-0.0635
20,ACCTTCAT,-0.00129
21,ACGCTAAA,0.0442
22,GATCTGAA,0.0519
23,CGGTGTCC,0.153
24,ACTTTTTA,0.0977
25,AAGATAAC,0.068

row,Sequence,PBM E-score
1,TGCCCTAA,-0.217
2,ACGTAGCT,-0.118
3,GCAGCGCC,-0.00836
4,ATCGTAAA,-0.00064
5,GGCGTGTA,-0.179
6,CTGGGTGA,0.086
7,GCAACGCA,-0.069
8,TCACCCGA,0.0554
9,AGAGCAAT,-0.105
10,AAGAGCGG,-0.0389
11,CACCTTTC,-0.137
12,GACATTGC,-0.175
13,ATATTTAA,0.306
14,ATGGTCCC,-0.195
15,CGGTACTC,-0.0527
16,GCATAAAC,0.0879
17,CACTAAGA,0.0113
18,CGGGCCAA,-0.113
19,ATCCTGTC,0.0638
20,AACATAGT,0.0272
21,ATAGCTCA,-0.155
22,AAAAAGAC,0.0812
23,AGCTGATA,-0.0203
24,TCAGACGA,-0.0957
25,CTAAGTAC,0.0725

row,Sequence,PBM E-score
1,AAGAGGAC,-0.0988
2,CACATCAC,-0.0326
3,GCGCAAGC,-0.174
4,ACGCTTAA,0.00513
5,ACACCAGC,-0.289
6,TAGACTCA,0.0545
7,ACTCGGTC,0.19
8,TACCATCA,-0.165
9,CGCTTTGA,-0.0367
10,AGGGGACC,-0.276
11,ATAATAAA,0.276
12,AACTCGCG,0.125
13,GCCTACTA,-0.116
14,ATTAGTTG,0.137
15,CTAATACC,0.0914
16,ACTAGTCC,0.0395
17,GGGTAAGA,-0.0467
18,CGGTAAAC,0.216
19,AATGGCGC,-0.165
20,AAGGTGGA,-0.00775
21,AGACATCG,-0.123
22,ATCCTGAA,0.102
23,ATGCCAAA,-0.0656
24,CGATTACA,0.0248
25,CACAGCAA,0.175

row,Sequence,PBM E-score
1,ACTGCTAT,-0.108
2,CGACGTAA,0.15
3,GTCCCCGA,-0.142
4,CGACTCAA,0.0276
5,ACCGGTAT,0.081
6,CGGACAGC,0.255
7,CCGAGAGA,0.212
8,ACGCGCGA,-0.00575
9,AACTCATA,0.146
10,AGTTATAT,0.0788
11,GTACGAAA,0.239
12,GAACTATA,0.204
13,ACTCTAGG,-0.198
14,ACTCACCT,-0.297
15,AAAGAGCA,0.0786
16,GAGTTTCC,0.178
17,GTTGCTCA,-0.0553
18,CGGGACAG,0.167
19,AGCGCCAA,-0.231
20,GTTACCAA,0.00353
21,ACAGAGTC,-0.214
22,AAAAACCT,0.111
23,CTGCCCGA,0.00693
24,AGTATTAG,0.19
25,AAATCGGC,0.283

row,Sequence,PBM E-score
1,AGCAACCA,0.0575
2,CGGTGACC,-0.0412
3,GAACATTA,0.124
4,ATTGCCTG,-0.0599
5,AGGGCCTG,-0.329
6,CCATCACA,-0.124
7,AACTGATG,-0.068
8,CACGGATG,0.108
9,AAAGGGTA,-0.0896
10,AAGCGCCC,-0.0109
11,CGAGTCTA,-0.103
12,TCAAATCA,-0.0758
13,CAAGGGGA,-0.0979
14,GTGTTTCA,-0.098
15,AAAGGAAA,0.203
16,ATGTAACA,0.152
17,CTCGGCGA,0.399
18,GCTATAAC,-0.00042
19,AGGAAGGC,-0.0284
20,CCCTACGC,-0.284
21,CCCCACCC,-0.0349
22,CTTCAGAA,0.131
23,GCCTGAAC,-0.0829
24,GGGCCACC,-0.0621
25,CCATATTC,-0.0171

row,Sequence,PBM E-score
1,ATCAGCCC,-0.386
2,CAATGTCC,-0.087
3,ACCTTCGG,0.197
4,GTGCCAGA,-0.299
5,CGGTATAC,0.0988
6,GGTATGCA,-0.191
7,GGCTCGAC,-0.0272
8,GCCTCACC,-0.156
9,CGCTTGGA,0.0874
10,CAGTATGC,-0.0894
11,TATCTCGA,-0.0455
12,AGTGTAAA,0.105
13,AGAGGCCT,-0.114
14,ATCGATGG,-0.0655
15,AAGGTTGC,-0.19
16,AAATCTAA,0.0546
17,AGTTTTGA,0.103
18,GATCCTCC,-0.178
19,ACTCTAAT,0.00773
20,GCAGCAAA,-0.117
21,ACTCCAAC,0.0431
22,CGGGGGGC,-0.293
23,CACGTGTC,-0.17
24,GGGCCCAA,-0.0842
25,GGGATTGA,-0.0889

row,Sequence,PBM E-score
1,AATGGCCT,-0.0309
2,GGATGGAA,-0.0548
3,ATCAGCAG,0.0226
4,CACTGGAG,-0.292
5,AGGAGCCT,-0.269
6,ACAGCGTC,0.0202
7,GCTTGGGA,-0.16
8,ACATCCGG,0.397
9,CGGACGCC,0.104
10,ACACTCCC,-0.211
11,CATTTTCA,0.106
12,CAGGAATA,0.0639
13,GGTCCGTA,0.178
14,TTCCGAAA,0.37
15,CCAAGTTA,-0.117
16,ATTTAATC,0.248
17,GGGTCCAA,-0.121
18,GGAATAAA,0.228
19,CGGACCTA,0.0584
20,ATCATAAA,0.173
21,TAAGTACA,-0.0474
22,AAATGCCC,-0.175
23,ACCTTCCG,0.227
24,ACGATTTG,-0.0682
25,CTATTAGC,0.171

# Some of the entries so far, bar-delimited:
row | Sequence | PBM E-score
1 | GAAGTCTA | -0.243
2 | AGGATAAT | 0.0292
12 | AATACTCC | -0.00405
13 | CGTCGGGC | -0.0962
17 | GCCTCTAA | -0.221
18 | CGATAACC | 0.0924
19 | GGTCAGAC | -0.221
4 | ATAAAGTG | 0.174
7 | CTGAAGCC | -0.0315
11 | CAGTACGC | -0.132
14 | ATAGTTTC | -0.00249
20 | ACCTTCAT | -0.00129
25 | AAGATAAC | 0.068
1 | TGCCCTAA | -0.217
2 | ACGTAGCT | -0.118
5 | GGCGTGTA | -0.179
7 | GCAACGCA | -0.069
11 | CACCTTTC | -0.137
12 | GACATTGC | -0.175
13 | ATATTTAA | 0.306
17 | CACTAAGA | 0.0113
21 | ATAGCTCA | -0.155
22 | AAAAAGAC | 0.0812
2 | CACATCAC | -0.0326
6 | TAGACTCA | 0.0545
7 | ACTCGGTC | 0.19
12 | AACTCGCG | 0.125
13 | GCCTACTA | -0.116
15 | CTAATACC | 0.0914
17 | GGGTAAGA | -0.0467
2 | CGACGTAA | 0.15
10 | AGTTATAT | 0.0788
12 | GAACTATA | 0.204
15 | AAAGAGCA | 0.0786
20 | GTTACCAA | 0.00353
24 | AGTATTAG | 0.19
2 | CGGTGACC | -0.0412
5 | AGGGCCTG | -0.329
6 | CCATCACA | -0.124
15 | AAAGGAAA | 0.203
16 | ATGTAACA | 0.152
21 | CCCCACCC | -0.0349
22 | CTTCAGAA | 0.131
24 | GGGCCACC | -0.0621
2 | CAATGTCC | -0.087
6 | GGTATGCA | -0.191
7 | GGCTCGAC | -0.0272
8 | GCCTCACC | -0.156
10 | CAGTATGC | -0.0894
11 | TATCTCGA | -0.0455
13 | AGAGGCCT | -0.114
20 | GCAGCAAA | -0.117
25 | GGGATTGA | -0.0889
5 | AGGAGCCT | -0.269
8 | ACATCCGG | 0.397
9 | CGGACGCC | 0.104
13 | GGTCCGTA | 0.178
14 | TTCCGAAA | 0.37
15 | CCAAGTTA | -0.117
22 | AAATGCCC | -0.175
25 | CTATTAGC | 0.171

# (continued)

row,Sequence,PBM E-score
1,AACTGGGT,-0.0927
2,AATTTTAA,0.252
3,CTGGCTTA,-0.145
4,GGTTCGCA,-0.0751
5,CTGTACCC,-0.0139
6,GGTAAAGA,0.11
7,GCGGTGCA,-0.287
8,ATAGCCAA,0.0311
9,AATGAGTA,0.113
10,ATTAAATG,0.261
11,CGTCTGAA,0.0214
12,CGCGTCGA,0.034
13,ACAGCACG,0.129
14,AAAGGCAC,0.0567
15,CGGCCTAG,0.0513
16,CTAAAACC,0.066
17,ACGTACGT,-0.267
18,ACTACTCA,0.13
19,ACCGAGCG,0.152
